We go through one substance from article PMC12144310.

Amino acid sequences for entries named in this document (tags omitted).
UniProt P21796: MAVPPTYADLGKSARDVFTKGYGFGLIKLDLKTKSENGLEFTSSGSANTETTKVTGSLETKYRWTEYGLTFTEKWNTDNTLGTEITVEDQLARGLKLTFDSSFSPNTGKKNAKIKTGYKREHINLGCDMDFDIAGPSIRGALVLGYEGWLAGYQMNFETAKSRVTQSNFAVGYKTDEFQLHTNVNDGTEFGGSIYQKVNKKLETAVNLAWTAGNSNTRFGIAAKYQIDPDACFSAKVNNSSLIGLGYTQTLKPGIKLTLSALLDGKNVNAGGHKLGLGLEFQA

The target in this assay is CRYAB with a TurboID tag fused to its C-terminus (UniProt P02511). Put plainly: proximity labelling; BioID: CRYAB-TurboID or cytoplasmic TurboID in wild-type or TANGO2 knockout CAL51 cells, 500 µM biotin for 10 min; enrichment of biotinylated proteins, mass spectrometry.

These are yes or no findings as the source states them, for the method shown. Binding seen in cells or lysates may run through a third protein. Here binding means that the protein was enriched with, or labelled near, the bait; the list need not be complete. Tags and fused reporters may be left off the sequences shown.

In the case of VDAC1 (from UniProt P21796 1-283), the binding entry is listed as “binds”.
